Source: US11685741B2, “Fluorescent probes” (University of Massachusetts, priority 2017, dated 2023)
“Also recorded” adds a separate entry of the source.

Columns and labels:
[1] = system: primary human fibroblast cells (ws1); experiment: Confocal imaging of Fe2+ with Rh6GD in ws1 cells; assay type: cell-based; conditions: ws1, MitoTracker and LysoTracker
Protocol: Human primary fibroblast ws1 cells were grown at 37° C. in a humid atmosphere of 5% CO2 atmosphere in eagle's minimum essential medium (EMEM, ATCC) supplemented with 10% fetal bovine serum (FBS, ATCC). Cultures were divided into 1:2 every 48 h to an approximate cell density of 1.21 million cells/ml and used for experiments after 24 h.
A Zeiss LSM 710 laser-scanning confocal microscope system was used for cell imaging experiments. 40× oil-immersion objective lens were used to perform all the experiments. For imaging with the Rh6GD sensor, excitation wavelength of the laser was 543 nm and emissions were collected over the range 545-625 nm. For images with MitoTracker Green FM, LysoTracker Deep Red, excitation wavelengths recommended by the manufacturer were 488 nm for MitoTracker, 633 nm for LysoTracker. Emissions were integrated at 492-535 nm (MitoTracker), 650-800 nm (LysoTracker), respectively.
Ws1 cells, at an approximately density of 1.2 million/ml in complete EMEM medium, were incubated with 100 μM ferrous ammonium sulfate (FAS, Fe (NH4)2(SO4)2 from a 10 mM stock solution) for overnight at 37° C. in a humid atmosphere of 5% CO2 and then the cells were washed with fresh EMEM medium to remove excess Fe^2+. Then cells were incubated with Rh6GD (10 μM, from 500 μM stock solution in DMF) at 37° C. for 30 min and then cells were washed with EMEM media and then imaged. […]

[2] = Binding studies of sensor with Fe2+ (stoichiometry, affinity, reversibility); conditions: H2O/THF pH 7.3
Protocol: The binding stoichiometry between the sensor Rh6GD and Fe^2+ was investigated by absorption and fluorescence titrations first. The sensor, Rh6GD has an absorption band at ˜420 nm (FIG. 26) which is due to the transition from S0 to S1 states (A. Chakraborty, et al., N. Chem. Phys., 2006, 324, 733) of the dimethylaminocinnamaldehyde moiety. […] Similar titrations were performed and were monitored by fluorescence spectroscopy.
The binding constant was estimated by using the absorption titration results. The equations below were used to calculate the binding constant for 2:1 complexes following a reported procedure (M. Guo, et al., Dalton Trans., 2007, 102, 4951). S+2L ? SL2 (1) The complex apparent binding constant is given by
[formula] Fc is the fraction of L that formed a complex; the subscripts e and o stand for equilibrium and initial concentrations, respectively. Au, Am, and Ac are the absorbances of solutions of L (before any Fe^2+ was added), during the titration, and at saturation, respectively. The concentration of free Fe^2+ at equilibrium, [S]e, is found with the following identity: [S]e=[S]o−[SL2]e[=S]o−Fc[L]o (4) Finally, the integrated apparent binding constant equation is shown in equation (5).
Reversibility experiments were carried out by adding the metal chelator EDTA to the Rh6GD-Fe^2+ complex in H2O/THF (pH 7.3, v/v 4:1). […]
Besides metal-selectivity, the binding constant, which describes the strength of binding between the sensor and metal cations, is also an important factor to be considered in bio-imaging. […] Job's method was applied to study the binding stoichiometry between Rh101D and Fe^2+ and monitored by the absorbance at 585 nm.
The binding constants were estimated by using the fluorescence titration results (FIG. 38). […]
The binding stoichiometry and the affinity between the sensor NIRh-Fret and Fe^2+ were investigated by UV-vis absorption titration. […] The binding constant for the formation of this complex was determined to be 2.9×10^6 M^−1 using a reported procedure (C. A. Perez, et al., J. Inorg. Biochem., 2009, 103, 326). […]

In the case of CCNc1cc2c(cc1C)C1(c3cc(C)c(NCC)cc3O2)c2ccccc2C(=O)N1/N=C/C=C/c1ccc(N(C)C)cc1 [Rh6GD, 2-(((1E,2E)-3-(4-(dimethylamino)phenyl)allylidene)amino)-3′,6′-bis(ethylamino)-2′,7′-dimethylspiro[isoindoline-1,9′-xanthen]-3-one], the “subcellular location of exchangeable Fe^2+ pools detected” value [1] is reported as “mitochondria and lysosomes; also recorded: mitochondria and endosomes/lysosomes, not in the cytosol” and the “reversibility of binding on addition of EDTA” value [2] is reported as “reversible binding”.
